Reference: PMC12370185
This is one part of the list.

Tested on: KLF4 + histone octamer
Experiment: EMSA with sequencing
Conditions: 10 mM Tris-Cl pH 7.5, 50 mM NaCl, 1 mM DTT, 0.25 mg/ml BSA, 2 mM MgCl2, 0.025% Nonidet P-40, 5% glycerol; 28 nM nucleosome library; 10 min on ice then 30 min …; high values mean tight binding; double strand, one strand shown

Row | Sequence | binding signal (log2 relative supershift)
1 | GATGGACCCTATACGCGGCGGGAGACCAGGCGTCCTGGTCCCTTCCTTCTGTCTCCGGCTCCCGCCCCCCAAGCAGAAACAGGTCCCTGCACGCCTCCAGCCCAGCCCGCAGCGCGGCGCAGCTCGGCGCAGCTCGGCGCTGGGAGCTCGCTCCGGACTTCTCGGGATTAACCTGCTATTATGTCCCGGAGCCCTTCCCTGCAATGGGCTTGCCAGTCGGATAGTGTTCC | 1.22
2 | GATGGACCCTATACGCGGCAAAAAAAAAGCGAAGGTGAGATGAAGCTTCAGAAAATAGAGGGCCGGGGAGGACACAGGCAGACAGAAGGAATGAGCGACTCAGTCTCAGGTTTCTGGGTCAGATCCAGGTCACATGTTTTGTCTCCTATAAAACTTACACCATACTTGTCGTTACTTGTTCAGTGCCTGCCTCTTCAACTAGGCTGTGAATGCCAGTCGGATAGTGTTCC | 1.4
3 | GATGGACCCTATACGCGGCAAAATCACAACCTACAAGTACAGAAGAGATTGCTACAGAGAAGGGTGGTGCTCCACACTCAGAGGCATGAATAAAAGGCCTAAGAGAGCACACAAGGCAATGATTAAGATGCAAATACGCCTTTCAGGTTGGCTCCTTCCTATCTTTCCATCTTGTGCTAAGCAGTGAGAAGAAAAATATTTATCCACAGCTGCCAGTCGGATAGTGTTCC | 0.642
4 | GATGGACCCTATACGCGGCAAAATATATATATATATAGTGGGACTGGGGAATCACAGAACCTTGCCTCAGCCCTGCCACCTTGCTGCCCATGAGGCTTTCAGGGAGGCTGTGGGAAGGGAGGGGGACAATGTCAAAGGCACATGGAAGCTCCCCTTTTATTATTAGCTGGGTGTGTGCCCAGCTCCTCCCAAACAGAACAGGGCTGGGACTGCCAGTCGGATAGTGTTCC | 1.8
5 | GATGGACCCTATACGCGGCAGCTGCATTTGGGACCTTATGGGAAAGTCTGTAAAATTTGCTGTCTTTATTTGCCCTTTAGAGAAAACAGTTTGCTGACCCCTGCACTACAGAGGTTAAGGAGTCCTCCCTCCCTCCCAAGGACCTGTATAGGCACGAAGGCCAGAGGAGCTGTTCTTATCTATGAAAGCTTCCTGGAGTGGATTTCGTGGTGCCAGTCGGATAGTGTTCC | 0.806
6 | GATGGACCCTATACGCGGCGCAGTAAAATCAACAGCTATGGTTGTGATGGAAGAAGAAAGACATAACCATTACCCAGAAGAGGGTGGATAGTAGTGTTTAGTTTTATTATTAGCAGCACTATTTACATAACAGCACATGTGCATGCCTGCCTGTCCATATAGAGCTATGGGCTTGGGGTGGGGCAAGAGAGAGTCATTGCTTGTAGAATTTGCCAGTCGGATAGTGTTCC | 1.83
7 | GATGGACCCTATACGCGGCGTATCCTAGAACTGCACTTTCTATCAACTTATGTTTCCCTGTGAAGAAAACCTTGTCTCAGCGAGGTGTGGCTGTTCTCAGAGTACTGTGTGTATATGCACGTGGGTGGGTGTGGGTGTGCATATATGTGTAATGGGGACGAACGAGTATTCCTGTACCTTCTTGTTGAGTAGAAGAAAAACATCAAGTTCTGCCAGTCGGATAGTGTTCC | 1.56
8 | GATGGACCCTATACGCGGCGACATTGAATCCCCTCACTATAATCTGAATGTGATTTATTATCCCCTTAAAGAGGGGCATCCATACAGGCATGGTCTAATCCCTTGCAATTCAAAGTGTAATCCAAAAGCCAGTAGCATTTGCATCACTTGGGAGCCTGTTACAAATGCACAACCTCAGACCCACCCCACACCTACTGAATCAAGATCCACTGCCAGTCGGATAGTGTTCC | 1.98
9 | GATGGACCCTATACGCGGCTTTGCCGAGAGGTTTGTTTCTGTTATAACTTTTCAAGACTGACTCCATTGTTTATTTTTGGAGCCAACTAGTCTTAGACCTCAGACCTCAGCACACTCAACAGGCCTCAACATGTTTTGAGGGCCTGCCGGAGAAGGCCCAGGCCTCACGGGTGCAGGTCCTACAGAAACCCAGTATCTGAGAGCAGCCTCTGCCAGTCGGATAGTGTTCC | 0.201
10 | GATGGACCCTATACGCGGCTGTGAATTGTGGAGGAAGGGCCCAGGAGGGCCACATGCCCTGCCAGGGAAGCCATAGAGAGCCCTGCCCCGGGAGGTCAGTGCCTCCTTCAATGCCTGCGATCCCTCACCCTGCCCTGCTTCCCCCACCATCCGCCCCGCCTGGGCAGCCTGGGCCACTGCCCGCCAGCCACCCCCGCCTTCGGACTGTGCTGCCAGTCGGATAGTGTTCC | 2.37
11 | GATGGACCCTATACGCGGCCCTCCCTGGGCATACCTGGTGGCATCAGGCCTGATCCTCTACAATGTCTGTCCCTGCCCTTGCCTGCTACTTCCAGGCCTACCTCCAGCCCAGACCTGCCCAGGCCTGCCCAGGCCCTGCTCTACCCTGATGCTCTGTGGCTCTGTTCCTGGGACTCTTCCTGGGAGACAGAAGGGAGATGAGAGCTCAAGTGCCAGTCGGATAGTGTTCC | 1.94

Retrieved one by one from above (two):
Row | Sequence | binding signal (log2 relative supershift)
3 | GATGGACCCTATACGCGGCAAAATCACAACCTACAAGTACAGAAGAGATTGCTACAGAGAAGGGTGGTGCTCCACACTCAGAGGCATGAATAAAAGGCCTAAGAGAGCACACAAGGCAATGATTAAGATGCAAATACGCCTTTCAGGTTGGCTCCTTCCTATCTTTCCATCTTGTGCTAAGCAGTGAGAAGAAAAATATTTATCCACAGCTGCCAGTCGGATAGTGTTCC | 0.642
6 | GATGGACCCTATACGCGGCGCAGTAAAATCAACAGCTATGGTTGTGATGGAAGAAGAAAGACATAACCATTACCCAGAAGAGGGTGGATAGTAGTGTTTAGTTTTATTATTAGCAGCACTATTTACATAACAGCACATGTGCATGCCTGCCTGTCCATATAGAGCTATGGGCTTGGGGTGGGGCAAGAGAGAGTCATTGCTTGTAGAATTTGCCAGTCGGATAGTGTTCC | 1.83
